Reference: PubChem BioAssay AID1259254 (NCATS, 2017)

- Purpose: 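Gene knock-downs that lead to re-replication, shown by excess G2 DNA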 (primary screen)
- System: human HCT116 colorectal cancer cells
- Reagent: single siRNA against human genes
- Duration: 3 days
- Measured: 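Imaged Hoechst DNA stain sorts each cell into a cycle phase by DNA amount; per plate, G2 fraction set to 0% for non-targeting and 100% for GMNN siRNA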
- Scale: G2 robust z-score and G2 cells, % of GMNN control: higher = more G2 cells, more excess DNA replication
- Call rule: 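Active siRNAs have a G2 robust z of 5 or more median absolute deviations over the median, which in these data means about 38% or higher of GMNN control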
Here is a random part of about 59,000 reagents tested. Of all reagents, about 1,550 (2.6%) got an active call. 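G2 share is only a proxy for re-replication; each gene was hit by three separate siRNAs, and active genes were retested.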 Entries without a mark were called inactive. Reagents against one gene are numbered here. Not all columns of the deposit are shown. The record does not give: the amount of reagent.

For RAB39B #1, how do the results read?
G2 robust z-score: -0.843; G2 cells, % of GMNN control: -2.97

With RAB39B #2, what was measured?
G2 robust z-score: 1.69; G2 cells, % of GMNN control: 14.9

What is on record for RAB39B #3?
G2 robust z-score: 0.396; G2 cells, % of GMNN control: 5.75

Which result is listed for LMO4 #1?
G2 robust z-score: -1.38; G2 cells, % of GMNN control: -6.75

What is on record for LMO4 #2?
G2 robust z-score: 1.76; G2 cells, % of GMNN control: 15.3

What is on record for LMO4 #3?
G2 robust z-score: 0.267; G2 cells, % of GMNN control: 4.85

For ELP2 #1, what does the deposit list?
G2 robust z-score: -0.553; G2 cells, % of GMNN control: -0.927

Which result is listed for ELP2 #2?
G2 robust z-score: -0.291; G2 cells, % of GMNN control: 0.922

For ELP2 #3, what does the deposit list?
G2 robust z-score: -0.727; G2 cells, % of GMNN control: -2.14

With TERF2IP #1, what does the deposit list?
G2 robust z-score: -0.173; G2 cells, % of GMNN control: 1.75

What did the screen give for TERF2IP #2?
G2 robust z-score: 0.218; G2 cells, % of GMNN control: 4.5

For TERF2IP #3, what was measured?
G2 robust z-score: -0.587; G2 cells, % of GMNN control: -1.16

What is on record for CICP26 #1?
G2 robust z-score: -0.83; G2 cells, % of GMNN control: -2.87

For CICP26 #2, what does the deposit list?
G2 robust z-score: -0.0145; G2 cells, % of GMNN control: 2.87

Which result is listed for CICP26 #3?
G2 robust z-score: 1.57; G2 cells, % of GMNN control: 14

What is on record for B3GALNT1 #1?
G2 robust z-score: -0.799; G2 cells, % of GMNN control: -2.66

For B3GALNT1 #2, how do the results read?
G2 robust z-score: -0.509; G2 cells, % of GMNN control: -0.611

For B3GALNT1 #3, what was measured?
G2 robust z-score: 0.921; G2 cells, % of GMNN control: 9.45

With PRKCD #1, what does the deposit list?
G2 robust z-score: 2.33; G2 cells, % of GMNN control: 19.4

Which result is listed for PRKCD #2?
G2 robust z-score: -1.82; G2 cells, % of GMNN control: -9.81

With PRKCD #3, how do the results read?
G2 robust z-score: -0.0748; G2 cells, % of GMNN control: 2.44

For UBE4A #1, what does the deposit list?
G2 robust z-score: 0.124; G2 cells, % of GMNN control: 3.84

For UBE4A #2, how do the results read?
G2 robust z-score: 0.952; G2 cells, % of GMNN control: 9.67

For UBE4A #3, what does the deposit list?
G2 robust z-score: -0.563; G2 cells, % of GMNN control: -0.992
